{"source": "patent US8658424B2", "about": "“Myelinating oligodendrocyte precursor populations” (Wisconsin Alumni Research Foundation, priority 2007, dated 2014)", "test_system": "hESC-derived Olig2 progenitors", "assay": "Differentiation of Olig2 progenitors to OPCs in glial differentiation medium (marker immunostaining)", "assay_type": "cell-based, human", "details": "treated between days 24 and 35; 13-14 weeks of differentiation", "protocol": "Olig2-expressing progenitors usually appeared around day 24 (Li et al., supra). […] FGF2 (R&D; 10 ng/ml) and/or EGF (Sigma; 10 ng/ml) was added to examine their effect on motor neuron differentiation and progenitor proliferation.\nFrom the 5th week of differentiation, FGF2 was replaced with a cocktail of cytokines consisting of PDGFAA, IGF1 and NT3 (all at 10 ng/ml). Du Z, et al., “Induced expression of Olig2 is sufficient for oligodendrocyte specification but not for motoneuron specification and astrocyte repression,” Mol. Cellular Neurosci. […] SHH or purmorphamine was removed around 10 weeks when PDGFRα+ OPCs appeared. The cultures were fed every other day and the progenitor clusters were broken into smaller pieces with polished glass Pasteur pipette every week.\nImmuno-fluorescent staining on coverslip cultures and free-floating brain sections was described previously. […] Specificity of the antibodies was first tested in embryonic brain and spinal cord tissues. Li et al., supra; and Pankratz et al., supra. Negative controls without primary and secondary antibody were performed in all experiments to monitor non-specific staining. […]\nAt least three coverslips were counted for every group. […]", "note": "Some entries share one result that the patent states for a list of compounds."}
{"smiles": "c1ccc2c(Oc3nc(Nc4ccc(N5CCOCC5)cc4)c4ncn(C5CCCCC5)c4n3)cccc2c1", "note": "[purmorphamine]", "values": [{"measurement": "PDGFRa+ OPCs among cells", "value": "over 80%"}]}
